Results on seven molecules are retold here after patent US20140220626A1.

Residue numbers refer to the chain shown, from its start. These are yes or no findings as the source states them, for the method shown. Some binding calls cover weakened binding; strength is not graded here.

Assay [1] addresses T1, biotin-CRP (C-reactive protein, antigen) (UniProt P02741).
T1 sequence (biotin label (site not stated), looked up): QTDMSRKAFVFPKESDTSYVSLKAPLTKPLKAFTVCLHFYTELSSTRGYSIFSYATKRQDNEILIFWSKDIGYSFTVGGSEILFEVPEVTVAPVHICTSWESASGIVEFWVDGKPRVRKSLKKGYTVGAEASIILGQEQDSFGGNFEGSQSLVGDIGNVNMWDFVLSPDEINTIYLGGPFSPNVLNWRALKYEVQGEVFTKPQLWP
The experiment in a line: ELISA: unpurified denatured scFv (solubilized insoluble fraction, diluted 10 or 100 fold) immobilized on hydrophilic polystyrene plate, biotin-CRP 1 to 5000 ng/ml, HRP-streptavidin, A405. In general terms: In an ELISA, binding on a coated surface is turned into a signal by an enzyme label.

The target in assay [2] is T1, biotin-CRP (C-reactive protein, antigen). The experiment in a line: ELISA: refolded scFv immobilized on hydrophilic polystyrene plate, biotin-CRP 1 to 5000 ng/ml, HRP-streptavidin, A405.
For assay [3] the target is unchanged. The experiment in a line: ELISA: denatured scFv (10 ug/ml, 4M urea, 1% Tween 20) immobilized and refolded on hydrophilic polystyrene plate, biotin-CRP 1 to 5000 ng/ml, HRP-streptavidin, A405.
Assay [4] shares this target. The experiment in a line: ELISA: denatured scFv (0.032, 0.32 or 3.2 ug per well) immobilized and refolded on hydrophilic polystyrene plate, biotin-CRP 1 to 5000 ng/ml, HRP-streptavidin, A405.
Assay [5] has the same target. The experiment in a line: ELISA: denatured scFv (4M urea) immobilized and refolded on hydrophilic polystyrene plate, biotin-CRP 1 to 5000 ng/ml, HRP-streptavidin, A405.

B1: peptide 21-2 of the invention (scFv)
scFv: MASEVKLMESGGGLVQPGGSLKLSCAASGFTFSSYGMSWVRQTPDKRLELVATINSNGGSTYYPDSVKGRFTISRDNAKNTLYLQMSSLKSEDTAMYYCARGGRLRLYFDVWGAGTSLTVSSGGGGSGGGGSGGGGSTGDIVMSQSPASLAVSLGQRATISCRASQSVSTSSYSYMHWYQQKPGQPPKLLIKYASNLESGVPARFSGSGSGTDFTLNIHPVEEEDTATYYCQHSWEIPYTFGGGTKLEIKRADAAPTVAAARIIIRRIRRIEHHHHHH
On to B1, for which the binding entry in assay [1], in assay [2] and in assay [3] was “binds” in each case.

B2: peptide 21-1 of the invention (scFv)
scFv: MASQVQLQQSGAELVKPGASVKLSCTASGFNIKDYYMHWVKQRTEQGLEWIGRIDPEDGETKYAPKFQGKATITADTSSNTAYLQLSSLTSEDTAVYYCARGYYGSEAMDYWGQGTSLTVSSGGGGSGGGGSGGGGSTGSIVMTQSHKFMSTSVGDRVSITCKASQDVNTAVAWYQQKPGQSPKLLIYWASTRHTGVPDRFTGSGFGTDYTLTISSVQAEDLALYYCQQHYSTPWTFGGGTKLEIKRADAAPTVAAARIIIRRIRRIEHHHHHH
As for B2, the binding result in assay [1], in assay [2], in assay [4] and in assay [5] was “binds” in each case.

B3: peptide 21-3 of the invention (scFv)
scFv: B2 scFv with D93N, L118V, G124R, S140D, V142L, N169S, F206S
As to B3, the binding entry in assay [1] and in assay [2] was “binds” each time.

B4: peptide 23-1 of the invention (scFv)
scFv: MASQVQLQQSGAELVKPGASVKLSCTASGFNIKDYYMHWVKQRTEQGLEWIGRIDPEDGETKYAPKFQGKATITADTSSNTAYLQLSSLTSEDTAVYYCARGYYGSEAMDYWGQGTSLTVSSRIIIRRIRRGGGGSGGGGSGGGGSTGSIVMTQSHKFMSTSVGDRVSITCKASQDVNTAVAWYQQKPGQSPKLLIYWASTRHTGVPDRFTGSGFGTDYTLTISSVQAEDLALYYCQQHYSTPWTFGGGTKLEIKRADAAPTVAAARIIIRRIRRIEHHHHHH
B4: the binding result in assay [5] is reported as “binds”.

B5: peptide 22-2 of the invention (scFv)
scFv: MASEVKLMESGGGLVQPGGSLKLSCAASGFTFSSYGMSWVRQTPDKRLELVATINSNGGSTYYPDSVKGRFTISRDNAKNTLYLQMSSLKSEDTAMYYCARGGRLRLYFDVWGAGTSLTVSSRIIIRRIRRGGGGSGGGGSGGGGSTGDIVMSQSPASLAVSLGQRATISCRASQSVSTSSYSYMHWYQQKPGQPPKLLIKYASNLESGVPARFSGSGSGTDFTLNIHPVEEEDTATYYCQHSWEIPYTFGGGTKLEIKRADAAPTVAAALEHHHHHH
Turning to B5, in assay [3], the binding result is recorded as “binds”.

B6: peptide 22-1 of the invention (scFv)
scFv: MASQVQLQQSGAELVKPGASVKLSCTASGFNIKDYYMHWVKQRTEQGLEWIGRIDPEDGETKYAPKFQGKATITADTSSNTAYLQLSSLTSEDTAVYYCARGYYGSEAMDYWGQGTSLTVSSRIIIRRIRRGGGGSGGGGSGGGGSTGSIVMTQSHKFMSTSVGDRVSITCKASQDVNTAVAWYQQKPGQSPKLLIYWASTRHTGVPDRFTGSGFGTDYTLTISSVQAEDLALYYCQQHYSTPWTFGGGTKLEIKRADAAPTVAAALEHHHHHH
In the case of B6, in assay [5], the binding result was “binds”.

B7: peptide 23-2 of the invention (scFv)
scFv: MASEVKLMESGGGLVQPGGSLKLSCAASGFTFSSYGMSWVRQTPDKRLELVATINSNGGSTYYPDSVKGRFTISRDNAKNTLYLQMSSLKSEDTAMYYCARGGRLRLYFDVWGAGTSLTVSSRIIIRRIRRGGGGSGGGGSGGGGSTGDIVMSQSPASLAVSLGQRATISCRASQSVSTSSYSYMHWYQQKPGQPPKLLIKYASNLESGVPARFSGSGSGTDFTLNIHPVEEEDTATYYCQHSWEIPYTFGGGTKLEIKRADAAPTVAAARIIIRRIRRIEHHHHHH
For B7, the binding result in assay [3] is reported as “binds”.
